{"sequences": {"note": "Protein sequences, listed by entry. Tags and fused reporters are not part of them. Lines headed by an entry give the natural chain unless they say otherwise; changes in a name come on top.", "UniProt Q9BPZ7": "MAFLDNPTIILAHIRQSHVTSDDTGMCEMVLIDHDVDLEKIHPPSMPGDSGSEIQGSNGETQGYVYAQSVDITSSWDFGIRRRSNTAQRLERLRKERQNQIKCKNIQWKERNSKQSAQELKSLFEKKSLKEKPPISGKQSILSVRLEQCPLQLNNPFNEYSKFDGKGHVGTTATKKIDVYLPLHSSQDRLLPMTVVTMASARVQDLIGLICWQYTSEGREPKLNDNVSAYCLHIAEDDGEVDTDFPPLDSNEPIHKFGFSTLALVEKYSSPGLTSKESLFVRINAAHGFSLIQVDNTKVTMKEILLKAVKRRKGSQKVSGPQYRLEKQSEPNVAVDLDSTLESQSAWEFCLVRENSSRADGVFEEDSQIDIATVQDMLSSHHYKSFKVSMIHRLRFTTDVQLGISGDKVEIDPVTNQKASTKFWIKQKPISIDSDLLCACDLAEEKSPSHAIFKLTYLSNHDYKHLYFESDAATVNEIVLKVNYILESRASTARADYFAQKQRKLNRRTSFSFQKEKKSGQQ", "UniProt Q92963": "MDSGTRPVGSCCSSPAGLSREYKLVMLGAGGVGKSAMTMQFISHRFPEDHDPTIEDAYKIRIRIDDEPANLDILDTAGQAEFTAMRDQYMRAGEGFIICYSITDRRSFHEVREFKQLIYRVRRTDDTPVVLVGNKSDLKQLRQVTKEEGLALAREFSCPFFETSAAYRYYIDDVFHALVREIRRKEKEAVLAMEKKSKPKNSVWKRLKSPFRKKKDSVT"}, "source": "paper PMC4274107", "biological_target": "GFP-tagged Sin1 (stress-activated protein kinase (SAPK)-interacting protein 1) (UniProt Q9BPZ7)", "assay": "co-IP; reciprocal: lysates (400 µg) of co-transfected HEK-293T cells; immunoprecipitation with anti-GFP antibody and protein G-sepharose, 4°C; washes with lysis buffer (1% Triton X-100, 150 mM NaCl) and with 500 mM NaCl; blotted for HA-Rit^Q79L and Sin1", "note": "Results are given in words; binding and its absence hold for the method and conditions named. Binding seen in cells or lysates may run through a third protein. Some results given as binding are weak or reduced against the parent protein; the word gives no strength.", "data": [{"substance": "HA-tagged active Rit (Rit^Q79L) (from UniProt Q92963 1-219)", "values": [{"measurement": "binding", "value": "binds"}]}]}
